Results are given in words; binding and its absence hold for the method and conditions named. Binding can be weak; no strength is given.
Tests used:
PCGF1 (mouse) = target: T1, PCGF1 (mouse) (UniProt Q8R023); assay: cross-linking; 30 ug of the affinity-purified five-component PCGF1-PRC1 holocomplex cross-linked with BS3 for 30 min at 37 C; trypsin digest, LC-MS/MS, XQuest, confidence score cut-off > 15; both purified
T1 sequence: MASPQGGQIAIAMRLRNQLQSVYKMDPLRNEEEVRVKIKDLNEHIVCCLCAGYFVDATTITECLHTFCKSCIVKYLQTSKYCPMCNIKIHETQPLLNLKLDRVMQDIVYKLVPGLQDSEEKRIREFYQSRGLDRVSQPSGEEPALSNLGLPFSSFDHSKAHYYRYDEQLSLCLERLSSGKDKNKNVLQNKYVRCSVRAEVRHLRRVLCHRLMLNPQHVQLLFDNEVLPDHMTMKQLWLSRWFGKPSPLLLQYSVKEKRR

RYBP (mouse) = target: T2, RYBP (mouse) (UniProt Q8CCI5); assay: as above
T2 sequence: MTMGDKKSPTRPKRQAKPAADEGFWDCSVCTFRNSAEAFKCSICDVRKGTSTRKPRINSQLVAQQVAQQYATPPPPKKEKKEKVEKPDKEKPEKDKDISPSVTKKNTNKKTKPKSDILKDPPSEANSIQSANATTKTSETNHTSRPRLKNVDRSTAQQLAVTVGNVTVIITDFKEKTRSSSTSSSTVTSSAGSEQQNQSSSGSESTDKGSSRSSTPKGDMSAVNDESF

KDM2B (short isoform) (mouse)
binding (PCGF1 (mouse)): binds | binding (RYBP (mouse)): binds

Reference: publication PMC5065315
